Measured data: PubChem BioAssay AID504784 (Drosophila RNAi Screening Center, 2011)

Screen: 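Fly genes whose silencing alters how much lipid cells keep in droplets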 (primary screen)
Cells: Drosophila Kc167 embryonic cells
Reagent: long dsRNA against Drosophila genes, about 250 ng dsRNA per well
Time to read-out: 4 days
Challenge: cells fed 400 µM oleic acid bound to BSA
Read-out: 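Microscope images give a droplet-to-nucleus area ratio, taken as log and converted to a screen-wide B-score; higher values mean greater lipid storage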
Scale: droplet/nuclear area B-score: higher = more stored lipid (overstorage)
In all, the deposit lists about 17,000 reagents; below is a random part of those with a known target gene and a result. 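Each column is one replicate's B-score; the combined score over replicates was not deposited, so single values may mislead.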 The numbers tell different reagents against one gene apart. Names joined by + are all predicted targets of the reagent. Not all columns of the deposit are shown. Reagent sequences are not shown.

target,dsRNA no.,"droplet/nuclear area B-score, replicate 1","droplet/nuclear area B-score, replicate 2"
CG13833,1,-0.556,-1.33
Wnt5 (Wnt oncogene analog 5),1,-1.03,0.403
CG31465,1,0.104,-1.75
ProtB (Protamine B),1,0.0699,0.256
CG30197,1,1.43,1.2
CG5646,1,0.0138,0.688
CG16974,1,-0.0526,-0.561
"Br140 (Bromodomain-containing protein, 140kD)",1,-3.59,-4.93
Poc1 (Proteome of centrioles 1),1,-1.25,-0.799
xmas-1 (retired record),1,0.445,1.58
CG14667,1,0.0202,-0.227
CG31673,1,-0.0722,-0.511
CG5561,1,0.131,-4.01
CG30447,1,0.00246,0.034
CG42748,1,-1.15,-0.034
CG42748,2,-0.927,1.11
CG42748,3,-0.0295,1.15
SPH93 (Serine protease homolog 93),1,0.161,-1.12
CG30375,1,-0.297,0.102
CG4770,1,0.768,0.487
Osbp (Oxysterol binding protein),1,1.93,-0.138
CG13532,1,0.0683,2.26
CG8945,1,0.0211,0.502
CG8945,2,-0.00863,-1.7
CG6739,1,0.844,1.2
Pisd (Phosphatidylserine decarboxylase),1,-1.76,-0.623
CG31231,1,-0.209,-0.223
CG12209,1,-0.736,0.0506
b6,1,-1.14,-1.27
Tip60 (Tat interactive protein 60kDa),1,1.48,
tHMG2 (testis-enriched HMG-box-containing protein 2),1,-1.63,-0.603
Setd3 (SET domain containing 3),1,0.475,
Setd3 (SET domain containing 3),2,1.55,0.308
Wdr81 (WD repeat domain 81),1,-0.674,-1.11
Acer (Angiotensin-converting enzyme-related),1,0.934,-0.0673
Tmtc2 (Transmembrane O-mannosyltransferase targeting cadherins 2),1,-0.853,0.32
Cog3 (Component of oligomeric golgi complex 3),1,-0.00863,-1.33
Cdc16 (Cell division cycle 16),1,-0.0004,1.12
Nipped-A,1,0.386,1.21
Nipped-A,2,2.01,0.572
Nipped-A,3,-3.67,3.63
Nipped-A,4,0.796,0.665
Nipped-A,5,2.85,-0.0518
Dlip2 (Dorsal interacting protein 2),1,-0.0558,-1.35
Mur2B (Mucin related 2B),1,1.9,0.0858
Mur2B (Mucin related 2B),2,-0.0975,0.205
CG15443,1,-0.915,1.14
"mAChR-B (muscarinic Acetylcholine Receptor, B-type)",1,2.88,3.06
Myo28B1 (Myosin 28B1),1,0.0713,-0.381
Sply (Sphingosine-1-phosphate lyase),1,0.781,-0.01

Continued, starting with the last 11 of the part before.
target,dsRNA no.,"droplet/nuclear area B-score, replicate 1","droplet/nuclear area B-score, replicate 2"
Nipped-A,2,2.01,0.572
Nipped-A,3,-3.67,3.63
Nipped-A,4,0.796,0.665
Nipped-A,5,2.85,-0.0518
Dlip2 (Dorsal interacting protein 2),1,-0.0558,-1.35
Mur2B (Mucin related 2B),1,1.9,0.0858
Mur2B (Mucin related 2B),2,-0.0975,0.205
CG15443,1,-0.915,1.14
"mAChR-B (muscarinic Acetylcholine Receptor, B-type)",1,2.88,3.06
Myo28B1 (Myosin 28B1),1,0.0713,-0.381
Sply (Sphingosine-1-phosphate lyase),1,0.781,-0.01
opm (opossum),1,0.879,0.445
opm (opossum),2,7.23,4.35
Sym (Symplekin),1,0.957,0.0911
CG5024,1,-0.131,1.28
CG31088,1,0.113,0.0441
Pdp (Pyruvate dehydrogenase phosphatase),1,-0.462,-3.05
CG1316,1,-0.725,0.706
CG14764,1,-1.19,-1.13
CG14764,2,0.377,0.167
CG14764,3,0.275,2
Shawn + Tyler,1,-0.319,0.827
Shawn + Tyler,2,-1.68,-2.84
CG5986,1,-1.39,-2.56
CG16790,1,-1.46,-0.827
Chsy (Chondroitin sulfate synthase),1,1.93,0.641
Chsy (Chondroitin sulfate synthase),2,-2.79,0.0889
Prosbeta2R1 (Proteasome beta2 subunit-related 1),1,0.88,0.775
DIP-zeta (Dpr-interacting protein zeta),1,-0.0937,-0.73
DIP-zeta (Dpr-interacting protein zeta),2,-0.0337,0.102
DIP-zeta (Dpr-interacting protein zeta),3,1.05,-0.991
AsnS (Asparagine synthetase),1,-0.176,0.89
RpL37-1 (Ribosomal protein L37-1),1,-0.326,-0.118
RpL37-1 (Ribosomal protein L37-1),2,0.352,4.66
CG6262,1,1.97,0
CG6262,2,-0.0319,2.68
RagA-B (Ras-related GTP binding A/B),1,0.0292,-1.53
asRNA:CR42547 + CG15674,1,-0.168,-0.232
Acsx3 (Acyl-CoA synthetase X3),1,0.0895,1.84
lz (lozenge),1,0.189,0.135
lz (lozenge),2,0.552,0.23
CG10919,1,1.49,0.149
crp (cropped),1,-1.21,-0.599
Vps39 (Vacuolar protein sorting 39),1,0.529,-0.233
CG4287,1,-1.18,-1.66
gcm (glial cells missing),1,-0.168,0.663
CG15306,1,-2.09,1.71
CG15306,2,0.133,1.41
Sesn (Sestrin),1,-0.703,0.771
Sesn (Sestrin),2,-0.482,-0.978
Sesn (Sestrin),3,0.522,-0.831
Amy-d (Amylase distal),1,0.268,0.486
vilya,1,-0.255,0.977
Cpr72Ec (Cuticular protein 72Ec),1,1.37,-1.31
msps (mini spindles),1,1.11,4.54
"SmydA-5 (SET and MYND domain containing, arthropod-specific, member 5)",1,0.576,-1.15
Prosbeta5R2 (Proteasome beta5 subunit-related 2),1,0.902,-3.04
CG13460,1,0.0327,1.03
CG13884,1,-1.34,0.23
"SmydA-9 (SET and MYND domain containing, arthropod-specific, member 9)",1,0.204,0.772
Naa20A (N(alpha)-acetyltransferase 20 A),1,0.441,-0.143
CG17994,1,0.297,-1.56
CG13840,1,3.24,-0.814
CG13840,2,-0.324,-0.0226
CG9577,1,0.52,1.68
CG3823,1,-0.687,-0.0411
